Results are given in words; binding and its absence hold for the method and conditions named. Binding seen in cells or lysates may run through a third protein. Some binding calls cover weakened binding; strength is not graded here.
Target: T1, CCCTC-binding factor (CTCF) (human (endogenous in NK92)) (UniProt P49711)
T1 sequence: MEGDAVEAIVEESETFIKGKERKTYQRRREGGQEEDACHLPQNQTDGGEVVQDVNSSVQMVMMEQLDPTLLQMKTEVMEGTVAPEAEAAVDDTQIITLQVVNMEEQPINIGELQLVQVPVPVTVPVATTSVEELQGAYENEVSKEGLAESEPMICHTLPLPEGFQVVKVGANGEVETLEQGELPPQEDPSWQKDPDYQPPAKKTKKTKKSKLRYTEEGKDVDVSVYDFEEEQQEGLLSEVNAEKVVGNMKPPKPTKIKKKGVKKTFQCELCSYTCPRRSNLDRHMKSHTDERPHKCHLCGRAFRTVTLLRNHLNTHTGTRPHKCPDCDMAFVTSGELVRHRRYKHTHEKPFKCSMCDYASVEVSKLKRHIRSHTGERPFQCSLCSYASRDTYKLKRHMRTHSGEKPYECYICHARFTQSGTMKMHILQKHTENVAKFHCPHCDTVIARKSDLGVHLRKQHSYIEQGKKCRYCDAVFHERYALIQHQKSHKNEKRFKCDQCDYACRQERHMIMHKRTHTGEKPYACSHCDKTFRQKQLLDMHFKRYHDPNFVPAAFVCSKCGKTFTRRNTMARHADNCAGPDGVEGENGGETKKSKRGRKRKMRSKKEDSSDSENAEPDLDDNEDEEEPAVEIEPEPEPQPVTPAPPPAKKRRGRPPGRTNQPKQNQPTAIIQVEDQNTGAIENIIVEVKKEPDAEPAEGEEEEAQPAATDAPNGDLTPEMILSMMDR
Assay: co-IP; endogenous proteins in NK92 lysate (20 mM Tris-HCl pH 7.5, 0.5% NP-40, 250 mM NaCl, 3 mM EDTA, 3 mM EGTA); overnight immunoprecipitation at 4 °C with antibodies or IgG, protein A/G magnetic beads, Western blot; untreated and rsMICA-treated cells

Amino acid sequences for entries named in this document (tags omitted).
UniProt Q15022: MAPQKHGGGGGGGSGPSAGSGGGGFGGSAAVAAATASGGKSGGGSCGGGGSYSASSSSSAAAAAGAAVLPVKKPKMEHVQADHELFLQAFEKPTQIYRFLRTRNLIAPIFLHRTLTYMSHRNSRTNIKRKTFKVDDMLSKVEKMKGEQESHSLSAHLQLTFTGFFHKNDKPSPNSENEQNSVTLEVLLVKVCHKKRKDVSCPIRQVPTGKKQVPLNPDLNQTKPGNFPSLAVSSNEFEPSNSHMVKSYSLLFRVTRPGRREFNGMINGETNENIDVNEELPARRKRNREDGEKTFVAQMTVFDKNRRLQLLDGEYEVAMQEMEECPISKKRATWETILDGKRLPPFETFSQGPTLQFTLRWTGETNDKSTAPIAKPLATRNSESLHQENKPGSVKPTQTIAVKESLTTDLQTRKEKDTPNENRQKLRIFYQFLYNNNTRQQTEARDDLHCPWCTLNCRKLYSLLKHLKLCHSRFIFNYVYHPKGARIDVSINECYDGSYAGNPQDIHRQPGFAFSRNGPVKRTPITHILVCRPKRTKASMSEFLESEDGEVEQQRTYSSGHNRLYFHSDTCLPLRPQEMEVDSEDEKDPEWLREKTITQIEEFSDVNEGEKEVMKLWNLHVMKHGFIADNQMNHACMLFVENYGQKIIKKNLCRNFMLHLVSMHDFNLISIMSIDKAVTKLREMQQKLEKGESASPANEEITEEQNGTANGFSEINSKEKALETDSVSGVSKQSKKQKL

binding: binds
Substance: suppressor of zeste 12 protein homolog (SUZ12) (from UniProt Q15022 1-739)

Reference: publication PMC11335232
